Measured values: US20230203158A1
These are yes or no findings as the source states them, for the method shown. Some entries that bind do so weakly or less than the wild type. Sequences can lack the tags named with a protein.

How the values were obtained:
[1] = target: T1, recombinant His-tagged murine Notch2 NRR domain, expressed and purified in house (murine) (UniProt O35516); test: BLI, antibody on anti-human IgG Fc biosensors, Notch2 NRR protein 1000 nM to 31 nM
T1 sequence (looked up): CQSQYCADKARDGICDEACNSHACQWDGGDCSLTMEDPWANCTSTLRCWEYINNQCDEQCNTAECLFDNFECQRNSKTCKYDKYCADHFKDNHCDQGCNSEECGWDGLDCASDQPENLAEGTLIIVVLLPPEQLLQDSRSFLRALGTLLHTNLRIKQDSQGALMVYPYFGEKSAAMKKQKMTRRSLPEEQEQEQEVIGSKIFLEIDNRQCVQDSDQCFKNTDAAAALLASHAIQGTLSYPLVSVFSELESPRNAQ

[2] = target: T2, recombinant His-tagged human Notch2 NRR domain, expressed and purified in house (human) (UniProt Q04721); test: as above
T2 sequence (looked up): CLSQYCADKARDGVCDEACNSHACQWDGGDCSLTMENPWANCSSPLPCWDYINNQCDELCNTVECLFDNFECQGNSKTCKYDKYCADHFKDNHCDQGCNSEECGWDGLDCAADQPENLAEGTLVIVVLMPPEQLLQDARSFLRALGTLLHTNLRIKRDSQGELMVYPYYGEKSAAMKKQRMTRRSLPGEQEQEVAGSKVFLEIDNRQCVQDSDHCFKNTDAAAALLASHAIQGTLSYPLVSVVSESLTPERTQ

[3] = target: T1, recombinant His-tagged murine Notch2 NRR domain, expressed and purified in house (murine); test: ELISA, His-tagged Notch2 NRR domain coated at 1 µg/mL
[4] = target: T2, recombinant His-tagged human Notch2 NRR domain, expressed and purified in house (human); test: as above

Measured: binding

B1: PRO034 (anti-Notch2 mAb 1 on a human IgG1 LALA-PG backbone, kappa light chain) (antibody, V domains shown)
VH: EVQLVESGGGLVQPGGSLRLSCAASGYSFTSYGMSWVRQAPGKGLEWVSYIYPYSGATYYADSVKGRFTISADTSKNTAYLQMNSLRAEDTAVYYCARHSGYYRISSAMDVWGQGTLVTVSS
VL: DIQMTQSPSSLSASVGDRVTITCRASQSISSYLAWYQQKPGKAPKLLIYGASSRASGVPSRFSGSGSGTDFTLTISSLQPEDFATYYCQQYYSSPLTFGQGTKVEIKR
binds: [1] | [2] | [3] | [4]

B2: PRO035 (anti-Notch2 mAb 2 on a human IgG1 LALA-PG backbone, kappa light chain) (antibody, V domains shown)
VH: EVQLVESGGGLVQPGGSLRLSCAASGYTFSSYGMSWVRQAPGKGLEWVSYIYPYSGATYYADSVKGRFTISADTSKNTAYLQMNSLRAEDTAVYYCARHSGYYRISSAMDVWGQGTLVTVSS
VL: DIQMTQSPSSLSASVGDRVTITCRASQSNRRFLAWYQQKPGKAPKLLIYGASSRASGVPSRFSGSGSGTDFTLTISSLQPEDFATYYCQQYYISPLTFGQGTKVEIKR
binds: [1] | [2] | [3] | [4]

B3: PRO036 (anti-Notch2 mAb 3 on a human IgG1 LALA-PG backbone, kappa light chain) (antibody, V domains shown)
VH: EVQLVESGGGLVQPGGSLRLSCAASGYTFSSYGMSWVRQAPGKGLEWVSYIYPYSGATYYADSVKGRFTISADTSKNTAYLQMNSLRAEDTAVYYCARHSGYYRISSAMDVWGQGTLVTVSS
VL: DIQMTQSPSSLSASVGDRVTITCRASQSVRSFLAWYQQKPGKAPKLLIYRASIRASGVPSRFSGSGSGTDFTLTISSLQPEDFATYYCQQYYISPWTFGQGTKVEIKR
binds: [1] | [2] | [3] | [4]

B4: PRO037 (anti-Notch2 mAb 4 on a human IgG1 LALA-PG backbone, kappa light chain) (antibody, V domains shown)
VH: EVQLVESGGGLVQPGGSLRLSCAASGYTFSSYGMSWVRQAPGKGLEWVSYIYPYSGATYYADSVKGRFTISADTSKNTAYLQMNSLRAEDTAVYYCARHSGYYRISSAMDVWGQGTLVTVSS
VL: DIQMTQSPSSLSASVGDRVTITCRASQSNRRFLAWYQQKPGKAPKLLIYGASSRASGVPSRFSGSGSGTDFTLTISSLQPEDFATYYCQQYYISPLTFGQGTKVEIKR
binds: [1] | [2] | [3] | [4]
